The text below walks through data of the supplement of paper PMC7666118.

By UniProt entry, the sequences of proteins in these tests, tags left out. Where a name states a change or a piece, a line headed by the entry shows the natural chain unless it says otherwise.
UniProt Q92536: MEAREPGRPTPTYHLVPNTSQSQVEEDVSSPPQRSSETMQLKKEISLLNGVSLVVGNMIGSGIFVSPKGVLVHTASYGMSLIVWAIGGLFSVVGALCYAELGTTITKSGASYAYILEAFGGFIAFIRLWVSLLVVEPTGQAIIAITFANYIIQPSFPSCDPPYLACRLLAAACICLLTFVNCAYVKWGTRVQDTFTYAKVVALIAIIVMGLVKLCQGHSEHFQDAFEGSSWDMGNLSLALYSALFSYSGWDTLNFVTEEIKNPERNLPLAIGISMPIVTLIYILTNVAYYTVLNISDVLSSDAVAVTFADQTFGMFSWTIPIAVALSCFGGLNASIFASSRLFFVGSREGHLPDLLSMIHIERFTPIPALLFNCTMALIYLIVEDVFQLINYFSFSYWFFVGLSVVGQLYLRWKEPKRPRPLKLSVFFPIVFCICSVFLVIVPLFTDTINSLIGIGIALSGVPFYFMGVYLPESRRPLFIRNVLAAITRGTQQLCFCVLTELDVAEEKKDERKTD
UniProt Q8TAQ2, whole entry: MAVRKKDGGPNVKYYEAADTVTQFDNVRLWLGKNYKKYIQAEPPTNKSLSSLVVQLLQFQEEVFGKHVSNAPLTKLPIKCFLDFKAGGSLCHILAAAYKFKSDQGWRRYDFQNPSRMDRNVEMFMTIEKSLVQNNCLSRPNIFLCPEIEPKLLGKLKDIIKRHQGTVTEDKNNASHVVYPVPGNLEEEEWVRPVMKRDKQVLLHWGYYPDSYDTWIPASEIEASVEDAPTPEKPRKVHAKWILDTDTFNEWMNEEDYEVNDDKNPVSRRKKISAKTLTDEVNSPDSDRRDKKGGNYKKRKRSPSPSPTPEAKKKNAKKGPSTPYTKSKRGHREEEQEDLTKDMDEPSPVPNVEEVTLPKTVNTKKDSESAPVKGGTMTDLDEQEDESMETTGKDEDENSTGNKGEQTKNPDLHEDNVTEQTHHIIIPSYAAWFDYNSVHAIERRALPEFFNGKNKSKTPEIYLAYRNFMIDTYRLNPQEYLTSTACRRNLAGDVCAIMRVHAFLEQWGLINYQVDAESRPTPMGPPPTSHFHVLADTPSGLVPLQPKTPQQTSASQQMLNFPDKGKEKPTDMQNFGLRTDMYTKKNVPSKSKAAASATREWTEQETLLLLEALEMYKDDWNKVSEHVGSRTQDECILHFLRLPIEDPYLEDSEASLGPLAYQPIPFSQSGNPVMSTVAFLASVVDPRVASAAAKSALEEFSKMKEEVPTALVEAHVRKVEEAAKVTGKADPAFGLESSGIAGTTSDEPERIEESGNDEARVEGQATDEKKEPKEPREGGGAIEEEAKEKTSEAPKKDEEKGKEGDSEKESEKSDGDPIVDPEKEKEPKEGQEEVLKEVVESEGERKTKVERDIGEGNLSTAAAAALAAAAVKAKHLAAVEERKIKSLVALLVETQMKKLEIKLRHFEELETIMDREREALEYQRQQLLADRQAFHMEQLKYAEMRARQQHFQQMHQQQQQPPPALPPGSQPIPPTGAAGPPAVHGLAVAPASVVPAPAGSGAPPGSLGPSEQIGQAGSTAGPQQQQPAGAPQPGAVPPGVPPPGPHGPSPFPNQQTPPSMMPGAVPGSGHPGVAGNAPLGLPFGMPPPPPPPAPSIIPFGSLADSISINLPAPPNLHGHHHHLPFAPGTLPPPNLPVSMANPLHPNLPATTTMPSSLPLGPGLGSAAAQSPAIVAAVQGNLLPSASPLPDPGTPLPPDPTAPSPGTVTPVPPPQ
UniProt Q9NTN3, whole entry, looked up: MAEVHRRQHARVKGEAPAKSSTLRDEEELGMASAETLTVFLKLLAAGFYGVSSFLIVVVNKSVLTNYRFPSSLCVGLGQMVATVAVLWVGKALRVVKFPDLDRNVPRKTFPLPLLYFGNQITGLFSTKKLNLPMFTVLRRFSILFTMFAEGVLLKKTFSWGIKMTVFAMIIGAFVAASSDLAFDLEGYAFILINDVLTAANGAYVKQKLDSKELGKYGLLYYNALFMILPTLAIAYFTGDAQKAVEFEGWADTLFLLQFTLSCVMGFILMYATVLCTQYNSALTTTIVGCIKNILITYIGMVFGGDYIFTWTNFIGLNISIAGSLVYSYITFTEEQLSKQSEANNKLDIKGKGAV
UniProt Q9BZD2: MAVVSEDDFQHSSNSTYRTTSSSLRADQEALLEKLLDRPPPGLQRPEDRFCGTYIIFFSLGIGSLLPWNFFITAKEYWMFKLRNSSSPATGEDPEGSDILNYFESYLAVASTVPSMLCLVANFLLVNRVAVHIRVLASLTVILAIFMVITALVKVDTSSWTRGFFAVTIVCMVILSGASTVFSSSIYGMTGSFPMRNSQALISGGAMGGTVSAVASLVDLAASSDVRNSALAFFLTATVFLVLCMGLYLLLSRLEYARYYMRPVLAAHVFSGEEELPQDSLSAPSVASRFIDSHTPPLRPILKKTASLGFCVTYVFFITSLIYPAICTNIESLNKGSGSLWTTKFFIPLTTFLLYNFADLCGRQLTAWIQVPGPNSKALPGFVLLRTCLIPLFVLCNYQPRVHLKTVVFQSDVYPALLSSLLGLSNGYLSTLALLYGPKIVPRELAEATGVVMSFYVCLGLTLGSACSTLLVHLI
UniProt Q86US8: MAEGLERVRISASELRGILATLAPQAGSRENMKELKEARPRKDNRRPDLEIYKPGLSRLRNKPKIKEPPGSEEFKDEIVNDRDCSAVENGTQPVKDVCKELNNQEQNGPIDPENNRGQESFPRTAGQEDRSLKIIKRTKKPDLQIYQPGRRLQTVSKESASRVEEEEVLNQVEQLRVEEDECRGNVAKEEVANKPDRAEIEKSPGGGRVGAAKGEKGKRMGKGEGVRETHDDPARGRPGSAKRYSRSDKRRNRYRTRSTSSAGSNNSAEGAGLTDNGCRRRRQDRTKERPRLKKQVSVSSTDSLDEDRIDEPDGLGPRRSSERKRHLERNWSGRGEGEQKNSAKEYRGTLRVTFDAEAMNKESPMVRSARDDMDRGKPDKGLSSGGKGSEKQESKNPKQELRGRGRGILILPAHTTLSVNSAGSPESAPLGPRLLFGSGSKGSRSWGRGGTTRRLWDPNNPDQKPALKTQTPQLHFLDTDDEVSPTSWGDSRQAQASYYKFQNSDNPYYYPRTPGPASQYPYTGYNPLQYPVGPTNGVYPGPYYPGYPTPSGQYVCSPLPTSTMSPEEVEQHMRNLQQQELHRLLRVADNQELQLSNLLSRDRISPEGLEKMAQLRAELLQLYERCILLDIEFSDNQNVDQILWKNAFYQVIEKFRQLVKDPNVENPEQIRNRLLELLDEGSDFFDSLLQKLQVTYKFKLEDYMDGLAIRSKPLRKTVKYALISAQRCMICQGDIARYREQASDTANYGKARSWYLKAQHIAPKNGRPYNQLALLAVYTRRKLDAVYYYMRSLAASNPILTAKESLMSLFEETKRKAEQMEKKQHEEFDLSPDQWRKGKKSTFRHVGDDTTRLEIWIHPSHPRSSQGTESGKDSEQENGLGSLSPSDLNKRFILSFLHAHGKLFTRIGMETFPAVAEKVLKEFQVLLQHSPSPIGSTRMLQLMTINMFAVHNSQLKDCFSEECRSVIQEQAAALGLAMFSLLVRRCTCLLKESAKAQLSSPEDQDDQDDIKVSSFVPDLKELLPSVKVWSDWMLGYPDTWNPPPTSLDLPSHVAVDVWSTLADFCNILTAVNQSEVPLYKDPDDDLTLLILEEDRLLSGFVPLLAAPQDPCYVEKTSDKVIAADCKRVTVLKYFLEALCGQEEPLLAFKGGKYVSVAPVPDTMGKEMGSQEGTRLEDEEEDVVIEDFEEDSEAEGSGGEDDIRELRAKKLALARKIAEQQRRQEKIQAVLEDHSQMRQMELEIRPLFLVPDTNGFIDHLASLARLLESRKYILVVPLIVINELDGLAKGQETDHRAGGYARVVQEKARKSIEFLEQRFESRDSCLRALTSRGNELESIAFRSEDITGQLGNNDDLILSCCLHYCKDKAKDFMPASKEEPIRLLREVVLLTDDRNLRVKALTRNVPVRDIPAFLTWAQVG
UniProt Q02978: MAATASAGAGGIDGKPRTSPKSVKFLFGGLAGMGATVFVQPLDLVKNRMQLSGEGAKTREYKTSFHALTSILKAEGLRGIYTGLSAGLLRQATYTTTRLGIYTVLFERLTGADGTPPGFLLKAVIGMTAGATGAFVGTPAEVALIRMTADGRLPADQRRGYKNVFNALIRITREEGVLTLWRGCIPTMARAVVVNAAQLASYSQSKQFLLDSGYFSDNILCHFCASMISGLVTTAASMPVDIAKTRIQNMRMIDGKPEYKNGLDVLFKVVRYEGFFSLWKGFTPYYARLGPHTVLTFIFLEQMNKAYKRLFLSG
UniProt P78324, whole entry: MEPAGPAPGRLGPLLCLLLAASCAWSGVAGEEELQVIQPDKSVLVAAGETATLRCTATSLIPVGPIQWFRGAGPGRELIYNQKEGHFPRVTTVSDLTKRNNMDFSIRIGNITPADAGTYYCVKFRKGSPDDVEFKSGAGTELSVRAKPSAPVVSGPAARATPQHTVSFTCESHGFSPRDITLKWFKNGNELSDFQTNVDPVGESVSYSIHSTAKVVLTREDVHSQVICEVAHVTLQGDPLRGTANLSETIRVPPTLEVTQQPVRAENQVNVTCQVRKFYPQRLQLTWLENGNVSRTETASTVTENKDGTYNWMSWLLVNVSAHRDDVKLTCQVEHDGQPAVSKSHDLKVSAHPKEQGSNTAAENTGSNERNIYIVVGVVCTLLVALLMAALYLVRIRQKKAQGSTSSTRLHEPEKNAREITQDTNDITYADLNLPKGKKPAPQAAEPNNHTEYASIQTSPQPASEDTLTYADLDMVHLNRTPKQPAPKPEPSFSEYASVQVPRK
UniProt P52569: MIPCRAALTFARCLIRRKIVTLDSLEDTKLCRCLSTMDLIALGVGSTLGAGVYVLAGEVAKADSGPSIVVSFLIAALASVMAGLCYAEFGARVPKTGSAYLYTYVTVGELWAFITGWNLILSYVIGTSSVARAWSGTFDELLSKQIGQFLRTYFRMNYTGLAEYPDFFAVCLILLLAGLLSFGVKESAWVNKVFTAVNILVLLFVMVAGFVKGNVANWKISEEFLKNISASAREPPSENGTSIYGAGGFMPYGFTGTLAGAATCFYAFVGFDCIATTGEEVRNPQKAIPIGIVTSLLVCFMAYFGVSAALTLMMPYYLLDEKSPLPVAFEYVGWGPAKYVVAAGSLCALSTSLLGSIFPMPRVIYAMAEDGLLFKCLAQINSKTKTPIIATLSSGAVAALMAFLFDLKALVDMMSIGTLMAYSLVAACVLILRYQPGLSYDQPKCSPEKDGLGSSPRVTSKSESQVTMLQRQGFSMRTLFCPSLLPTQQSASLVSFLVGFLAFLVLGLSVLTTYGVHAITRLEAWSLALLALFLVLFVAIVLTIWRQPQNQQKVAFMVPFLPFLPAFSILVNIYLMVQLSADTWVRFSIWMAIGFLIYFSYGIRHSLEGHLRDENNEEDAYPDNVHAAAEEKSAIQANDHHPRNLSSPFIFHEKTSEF
UniProt P11169: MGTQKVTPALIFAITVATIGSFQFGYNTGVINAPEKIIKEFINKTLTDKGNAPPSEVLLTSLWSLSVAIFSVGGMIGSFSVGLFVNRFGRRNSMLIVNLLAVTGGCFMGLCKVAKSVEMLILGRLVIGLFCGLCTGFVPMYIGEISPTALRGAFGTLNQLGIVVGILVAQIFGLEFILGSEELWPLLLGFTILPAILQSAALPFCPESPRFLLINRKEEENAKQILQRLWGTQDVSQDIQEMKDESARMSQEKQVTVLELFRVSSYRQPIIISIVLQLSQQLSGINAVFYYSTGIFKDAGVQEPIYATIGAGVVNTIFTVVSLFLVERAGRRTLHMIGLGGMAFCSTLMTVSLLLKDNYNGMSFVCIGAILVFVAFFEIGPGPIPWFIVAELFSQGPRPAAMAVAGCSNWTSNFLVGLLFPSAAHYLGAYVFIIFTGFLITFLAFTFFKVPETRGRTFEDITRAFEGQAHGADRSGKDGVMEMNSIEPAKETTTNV
UniProt Q9BWM7: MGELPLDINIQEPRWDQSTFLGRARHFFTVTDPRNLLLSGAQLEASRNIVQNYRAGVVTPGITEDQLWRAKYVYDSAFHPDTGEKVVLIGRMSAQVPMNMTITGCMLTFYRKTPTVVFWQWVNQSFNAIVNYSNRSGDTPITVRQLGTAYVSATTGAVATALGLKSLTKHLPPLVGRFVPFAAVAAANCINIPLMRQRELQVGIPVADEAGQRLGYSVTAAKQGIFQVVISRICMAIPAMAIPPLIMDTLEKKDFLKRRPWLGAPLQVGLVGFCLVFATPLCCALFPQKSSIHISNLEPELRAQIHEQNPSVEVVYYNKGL

Some of the results follow.

Compound in this test: COc1ccc(Cn2ccc3cc(C)c(C(=O)NO)cc32)cc1
Nature of the test: dose-dependent thermal stabilisation call (2D-TPP, DLPTP, 10% FDR) (binary (1 = stabilised)); higher = stabilised by the compound. Conditions: system: HL-60 intact cells; concentration range 0.04-10 µM. The method, then:
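2D thermal proteome profiling in intact HL-60 cells treated with BRD-3811 (0, 0.04, 0.29, 2, 10 uM) for 90 min at 37 C, then heated 3 min at one of 12 temperatures (42-63.9 C). Soluble protein was quantified by TMT10 MS. The value is the DLPTP call of the paper: dose-dependent thermal stabilisation over all temperatures at 10% FDR (F-test of a dose-response against a flat model); one experiment, one call per tested protein.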
In the case of SOAT1 (UniProt P35610), the “dose-dependent thermal stabilisation call” value is inactive: 0.
As for SLC7A6 (UniProt Q92536), the figure is inactive: 0.
As for SLC20A2 (UniProt Q08357), the figure is inactive: 0; as for SMARCA4 (UniProt P51532), inactive: 0.
As for SMARCC2 (UniProt Q8TAQ2), the “dose-dependent thermal stabilisation call” value was inactive: 0.
As for SLC35A1 (UniProt P78382), the figure is inactive: 0; as for SLC35D1 (UniProt Q9NTN3), inactive: 0; as for SLC29A3 (UniProt Q9BZD2), inactive: 0.
Regarding SGK196 (UniProt Q9H5K3), the “dose-dependent thermal stabilisation call” value was inactive: 0.
As for SGPL1 (UniProt O95470), the figure is inactive: 0; as for SLC30A6 (UniProt Q6NXT4), inactive: 0; as for SNX13 (UniProt Q9Y5W8), inactive: 0.
As for SLC39A6 (UniProt Q13433), the figure is inactive: 0; as for SLC16A10 (UniProt Q8TF71), inactive: 0; as for SNRNP70 (UniProt P08621), inactive: 0.
As for SMG6 (UniProt Q86US8), the “dose-dependent thermal stabilisation call” value is inactive: 0.
As for SLC25A11 (UniProt Q02978), the figure is inactive: 0; as for SIRPA (UniProt P78324), inactive: 0.
As for SLC19A2 (UniProt O60779), the figure is inactive: 0; as for SFRS2IP (UniProt Q99590), inactive: 0.
As for SLC7A2 (UniProt P52569), the figure is inactive: 0.
Regarding SLC2A3 (UniProt P11169), the “dose-dependent thermal stabilisation call” value is inactive: 0.
As for SETD3 (UniProt Q86TU7), the figure is inactive: 0; as for SFXN3 (UniProt Q9BWM7), inactive: 0; as for SGOL2 (UniProt Q562F6), inactive: 0.
Consider SMARCA2 (UniProt P51531), for which the “dose-dependent thermal stabilisation call” value was inactive: 0.
